## Screening data

Source: PubChem BioAssay AID1159506 (NCATS, 2015).

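Luminescence from an EWS-FLI1 target-promoter (NR0B1) reporter, set against a CMV-promoter reporter, two days after silencing single genes in TC32 Ewing sarcoma cells.
Each siRNA was applied at 20 nM.
A z-score of the log NR0B1-over-CMV signal, less the median of siRNAs with the same seed; more negative means a stronger specific loss of the NR0B1 reporter.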

This is part of the screen; most of the strongest results are not listed here.
Sequences are the guide (antisense) strand, without overhang.

For AGAACAACAACUGAGAUUG against FAM181A the result was seed-corrected z-score 0.1245. Result for UCUUGCCUUACGAAAUUCC against GBAS was seed-corrected z-score -0.3201. With UAACCAACAACCCGAUCUC against AACS the assay gave seed-corrected z-score 0.3165. AAAAGCAUAAUCUGGGUGU against SPAG16 gave seed-corrected z-score -0.4795. UUUCAUCCCAUUGCUUGUC against AAK1 read seed-corrected z-score 0.9328.

UGAUAGUAAUGUUUCGACC against XPO4 gave seed-corrected z-score -1.658. UACCAUAUAACAGUAACUG against FBXO15 gave seed-corrected z-score 0.6826. With AUGAUGAACUCGUAGAUGC against FOXG1 the assay gave seed-corrected z-score -1.15. AAUGUCAUGGAGGAUCACG against EEF1DP1 gave seed-corrected z-score -1.298. Result for UUUGCAAAAAGGCUGGUUC against LOC340113 was seed-corrected z-score -0.6183.

Result for UUACUUCACAUUGCUAGGU against TMEM30B was seed-corrected z-score 0.6939. AGACUUGGCACGCCUGUUC against MIXL1 gave seed-corrected z-score -0.4414. UAACUAUCUGCAUAAGCAC against CCDC50 read seed-corrected z-score -0.4523. With AAUGGUUAAACCGUUGCGC against ATP7B the assay gave seed-corrected z-score 0.6454. AGAUCUUCAAGGGUGAUGU against PEA15 gave seed-corrected z-score -1.243.

For UAGCCGUUAGUUUCUGGGC against CCDC121 the result was seed-corrected z-score -0.4716. Result for UUAUCGAUUACAGCAGCAC against KLHL28 was seed-corrected z-score 0.9669. Result for UUCAUAUUGAUCUUCUGUC against ETS2 was seed-corrected z-score 1.441. UUAUUUCUCUGGGUCACAC against DGCR6 read seed-corrected z-score 2.152. Result for UUGCGAACUACUGAAUCUC against FAM126B was seed-corrected z-score 0.4362.

UAAGGGUCUACAGAAUUUA against LOC729681 read seed-corrected z-score -0.04758. For AUCUGAUUGAGGUAAGUCC against ZDHHC13 the result was seed-corrected z-score -1.047. For AAUGUUGUUACUGUAUACA against EDDM3A the result was seed-corrected z-score -0.8791. For UAGAUAUCACGAGUGUACU against TMEM258 the result was seed-corrected z-score 0.751. UUCAUUAUCUUCGUGAUGG against TMEM185A gave seed-corrected z-score -0.8919.

ACCAGAUAGAUGUUUAGGC against KRTAP2-4 read seed-corrected z-score 0.0005878.

The last 3 entries again:

| siRNA | gene | seed-corrected z-score |
|---|---|---|
| `UAGAUAUCACGAGUGUACU` | TMEM258 | 0.751 |
| `UUCAUUAUCUUCGUGAUGG` | TMEM185A | -0.8919 |
| `ACCAGAUAGAUGUUUAGGC` | KRTAP2-4 | 0.0005878 |